Results are given in words; binding and its absence hold for the method and conditions named. Binding seen in cells or lysates may run through a third protein. Here binding means that the protein was enriched with, or labelled near, the bait; the list need not be complete.

Sequences of proteins named here, by UniProt entry; tags and fusion partners are left off.
UniProt Q14532: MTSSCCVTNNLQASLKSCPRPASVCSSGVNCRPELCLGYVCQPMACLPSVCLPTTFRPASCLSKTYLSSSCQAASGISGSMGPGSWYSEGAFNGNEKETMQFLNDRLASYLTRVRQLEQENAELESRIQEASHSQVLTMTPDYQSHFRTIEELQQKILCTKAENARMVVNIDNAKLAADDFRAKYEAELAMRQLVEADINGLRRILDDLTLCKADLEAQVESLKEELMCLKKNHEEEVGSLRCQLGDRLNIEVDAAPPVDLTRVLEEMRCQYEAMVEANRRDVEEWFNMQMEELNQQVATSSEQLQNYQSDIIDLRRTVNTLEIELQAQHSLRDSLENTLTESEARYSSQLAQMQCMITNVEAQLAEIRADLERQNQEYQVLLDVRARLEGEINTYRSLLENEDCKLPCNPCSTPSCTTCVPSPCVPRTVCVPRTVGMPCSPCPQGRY
UniProt Q9Y6K9: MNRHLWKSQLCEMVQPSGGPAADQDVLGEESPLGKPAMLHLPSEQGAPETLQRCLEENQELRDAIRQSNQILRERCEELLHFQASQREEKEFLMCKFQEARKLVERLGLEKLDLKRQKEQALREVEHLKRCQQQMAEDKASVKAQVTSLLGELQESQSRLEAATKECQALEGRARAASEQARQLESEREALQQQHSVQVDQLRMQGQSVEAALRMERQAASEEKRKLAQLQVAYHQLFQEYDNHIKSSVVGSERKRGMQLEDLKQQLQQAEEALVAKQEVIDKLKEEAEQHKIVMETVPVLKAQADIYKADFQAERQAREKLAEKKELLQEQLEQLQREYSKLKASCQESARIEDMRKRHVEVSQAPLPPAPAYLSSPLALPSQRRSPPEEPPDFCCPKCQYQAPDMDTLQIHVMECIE

The target in this test is GST-KRT32 (human) (UniProt Q14532). The experiment in a line: affinity purification with mass spectrometry; E. coli extracts containing GST-KRT32 (GST as control) incubated 12 h with primary keratinocyte lysate and glutathione-Sepharose beads; gel bands analysed by mass spectrometry (n = 1).

Take “NEMO (endogenous) (from UniProt Q9Y6K9 1-419)”: the binding entry is given as “binds”.

Values taken from publication PMC11269665.
